The assay has as its target T1, GST-XopA (X. campestris pv. vesicatoria) (UniProt B0RX62).
T1 sequence: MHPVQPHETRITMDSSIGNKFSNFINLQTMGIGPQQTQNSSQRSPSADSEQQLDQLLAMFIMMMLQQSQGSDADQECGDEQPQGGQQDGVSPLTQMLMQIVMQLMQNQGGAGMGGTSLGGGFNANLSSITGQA
The assay can be described thus: pull-down; GST or GST fusion protein from E. coli immobilized on glutathione sepharose, incubated with an E. coli lysate containing the c-Myc epitope-tagged partner; elution with 10 mM reduced glutathione; immunoblot with anti-c-Myc and anti-GST antibodies; only the target purified. In general terms: A western blot detects proteins with antibodies after separation by electrophoresis.

No constants are given. Whether binding was seen depends on the method and setting. In cells and extracts the contact can be indirect. A result given as binding can be weak or reduced; the word gives no strength. Tags and fused reporters may be left off the sequences shown.

Take “HpaC_(1–182)-c-Myc (X. campestris pv. vesicatoria) (domain or fragment)”: the binding result is “binds”.

For the substance “C-terminal cleavage product of HrcU-c-Myc (X. campestris pv. vesicatoria) (domain or fragment)”, the binding entry was “no binding”.

The record behind these values is paper PMC2427183.
